Laboratory results: PubChem BioAssay AID1671190 (National Center for Advancing Translational Sciences (NCATS), 2021)
Several values for one entry are separate records, joined by “and”; a condition that tells them apart may be missing. Identical values can stand only once. About 6,100 (1.1%) of roughly 580,000 compounds were called active. Inconclusive means that the source gave no clear call. Such entries were picked first, then a sample of the others. Calls follow the shape of the dose curve; as a rule, active = well fitted inhibition curve with a large enough effect; inconclusive = small, poorly fitted or top-dose-only effect, or another doubt; inactive = no such curve, though single readings can be large or run the other way. Potencies beside an inconclusive call are fits to weak or partial responses and may not hold up.

Sequences of proteins named here, by UniProt entry; tags and fusion partners are left off. A change or cut given only in a name is not applied to a line headed by its entry.
UniProt P18054: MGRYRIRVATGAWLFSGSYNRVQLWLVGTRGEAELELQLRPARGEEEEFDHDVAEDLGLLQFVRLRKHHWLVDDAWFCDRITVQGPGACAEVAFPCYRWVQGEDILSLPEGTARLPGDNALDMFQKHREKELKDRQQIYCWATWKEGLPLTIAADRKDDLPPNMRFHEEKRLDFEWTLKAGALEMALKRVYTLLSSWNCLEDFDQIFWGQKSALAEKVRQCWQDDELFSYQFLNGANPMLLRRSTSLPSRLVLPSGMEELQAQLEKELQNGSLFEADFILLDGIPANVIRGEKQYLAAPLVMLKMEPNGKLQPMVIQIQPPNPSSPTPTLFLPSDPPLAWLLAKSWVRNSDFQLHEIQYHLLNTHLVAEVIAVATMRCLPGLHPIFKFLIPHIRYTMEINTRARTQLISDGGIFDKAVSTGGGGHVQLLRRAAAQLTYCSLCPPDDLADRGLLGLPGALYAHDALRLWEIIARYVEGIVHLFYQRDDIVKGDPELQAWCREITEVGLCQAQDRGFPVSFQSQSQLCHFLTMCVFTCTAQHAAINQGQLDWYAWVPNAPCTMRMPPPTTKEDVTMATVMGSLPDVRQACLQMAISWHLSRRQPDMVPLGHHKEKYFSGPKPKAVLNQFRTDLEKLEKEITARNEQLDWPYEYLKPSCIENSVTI

Each compound was assayed against Polyunsaturated fatty acid lipoxygenase ALOX12 (Homo sapiens) (UniProt P18054) (assay: Primary qHTS assay for inhibitors of human arachidonate 12S-lipoxygenase (ALOX12): Round 2). Settings: purified 12hLO, xylenol orange hydroperoxide absorbance; activity change, negative = inhibition: at 108 µM (top of the series) unless noted.
Method in brief: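 Purified human 12hLO (150 nM final) in 25 mM Hepes, 0.01% Triton X-100, pH 7.0 was preincubated 15 min at room temperature with compound. Then 40 uM arachidonic acid was added, 30 min. Hydroperoxide was read by Fe-XO absorbance ratio 573/405 nm.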
% is scaled to controls: 0 for no effect and ±100 for the full control effect; potency is read from the fitted curve at half-maximal effect.

Row | SMILES | activity change, negative = inhibition | Potency
1 | CCC(C)NC(=O)N1CC(Oc2ccc(-c3noc(C4CCOCC4)n3)cc2)C1 (configuration not stated) | inactive: 8.15% | –
2 | O=[N+]([O-])/C=C/c1ccc(-c2ccccc2)o1 | – | active: 22.4 µM
3 | S=C(Nc1cccnc1)NC1CCCC1 | inactive: 1.37% | –
4 | CCCc1c(-c2ccc(OC)cc2)ncn1CCc1ccccc1OC | – | inconclusive: 100 µM [inhibitor, single point]
5 | Cc1ccc(-n2nnnc2SCc2nc3ccsc3c(=O)[nH]2)cc1 | – | inconclusive: 44.7 µM [inhibitor, partial curve, poor fit]
6 | COc1ccc(C2COc3cc(O)ccc3C2)c(OC)c1O (configuration not stated) | – | active: 35.5 µM
7 | CN(C)/C=N/C(=S)Nc1ccc(Br)cc1F | – | inconclusive: 35.5 µM [inhibitor, single point]
8 | CN1CCN(c2nc(-c3ccc(Cl)cc3Cl)nc3ccccc23)CC1 | inactive: 30.3% | –
9 | Cc1ccc(C2(c3ccccc3)NC(=O)N(CC(=O)NC3CCCCC3)C2=O)cc1C (configuration not stated) | inactive: -27% | –
10 | COc1cccc(C=NNc2ccc([N+](=O)[O-])cn2)c1OC | inactive: 0.921% | –
11 | Cn1nnnc1NCc1ccc(-c2ccc(Cl)cc2)o1 | – | inconclusive: 44.7 µM [inhibitor, partial curve, poor fit]
12 | COc1ccc(Br)cc1CNC(=O)Cn1nc(C)n2cccc2c1=O | inactive: 6.14% | –
13 | Nc1nc(-c2ccc(-c3ccccc3)cc2)cs1 | inactive: -0.0529% | –
14 | CCOC(=O)[C@H]1[C@H]2COc3ccc(Cl)cc3[C@@H]2N2C(=O)c3ccccc3NC(=O)[C@@]12C | inactive: -6.33% | –
15 | Cc1ccc(C(=O)NC[C@H]2O[C@@H](CC(=O)NCCN3CCOCC3)[C@H](O)[C@@H]2O)cc1 | inactive: 47.1% [at 176 µM] | –
16 | CN(CCc1ccccc1)C(=O)c1cccc(NC(=O)Cc2cccc(NC(=O)C3CCCN(S(=O)(=O)c4cccc([N+](=O)[O-])c4)C3)c2)c1 (configuration not stated) | – | inconclusive: 15.8 µM [inhibitor, partial curve, poor fit]
17 | CCc1cc(C(=O)NC2CCCN(Cc3ccccc3F)C2)n(C)n1 (configuration not stated) | inactive: -5.21% | –
18 | C/C(=N\Nc1ccc(Cl)c(C(=O)O)c1)c1ccc[nH]1 | inactive: -9.71% | –
19 | CC1CC(C)CN(C(=O)c2ccc3c(c2)N(Cc2ccccc2)C(=O)CS3=O)C1 (configuration not stated) | inactive: -31% | –
20 | O=C(COc1ccccc1F)c1ccc(O)cc1O | – | inconclusive: 3.16 µM [inhibitor, full curve, poor fit]
21 | NC(CO)c1ccc(Oc2ccccc2)cc1 (configuration not stated) | inactive: -56.5% | –
22 | COc1cccc(C(=O)Nc2ccc3oc(-c4ccc(OC)c(Cl)c4)nc3c2)c1 | – | inconclusive: 50.1 µM [inhibitor, partial curve, poor fit]
23 | Cc1c(Cl)cccc1N1C(=O)CC(N(O)c2ccccc2)C1=O (configuration not stated) | inactive: -28% | –
24 | O=C(Nc1ccc(Cl)cc1)C1CCCN(C2=NS(=O)(=O)c3ccccc32)C1 (configuration not stated) | – | inconclusive: 126 µM [inhibitor, single point]

Row | SMILES | activity change, negative = inhibition | Potency
25 | COC(=O)C1=C(C)NC(C)=C(C(=O)OC(C)C)C1c1cccc2nonc12 (configuration not stated) | – | inactive and inconclusive: 44.7 µM [inhibitor, partial curve, poor fit]
26 | COCCC1(NC(=O)C2CC2)CCN(S(C)(=O)=O)CC1 | inactive: 15.4% | –
27 | CCSc1nc(-c2ccco2)ccc1C#N | – | active: 6.31 µM
28 | CN(CC(=O)Nc1ccc(F)cc1)C(=O)c1ccc(-n2cccc2)cc1 | – | inconclusive: 5.01 µM [inhibitor, full curve]
29 | O=C1CCN(C(=O)c2cccs2)CCCCCCN1 | inactive: 41.3% | –
30 | Cc1ccc(SC(C)C(=O)Nc2ccc(S(=O)(=O)N3CCOCC3)cc2)cc1 (configuration not stated) | inactive: -20.4% | –
31 | CC(C)CNc1ccc2c(c1)OC[C@H](C)NS2(=O)=O | – | inconclusive: 44.7 µM [inhibitor, partial curve, poor fit]
32 | O=C(c1ccccc1Cl)N1CCC(CCc2ccc(O)cc2)CC1 | inactive: 14.3% | –
33 | Cc1cnc(C(=O)OCC(=O)Nc2sc3c(c2C(N)=O)CCCC3)cn1 | – | inconclusive: 25.1 µM [inhibitor, partial curve, poor fit]
34 | CC(O)CCC(=O)NNC(=S)Nc1ccccc1 (configuration not stated) | inactive: -9.06% | –
35 | COCCNC(=S)N(C)[C@H]1C[C@H]2c3[nH]c4c(-c5ccc6c(c5)OCO6)cccc4c3CCN2C[C@H]1[C@H](C)O | – | inconclusive: 28.2 µM [inhibitor, single point]
36 | CC(C)C(=O)N1CCC2(CC1)Oc1ccc(Cl)cc1C(=O)C21CC(c2cccnc2)=NO1 (configuration not stated) | – | inconclusive: 50.1 µM [inhibitor, partial curve, poor fit]
37 | CCCc1ccc(S(=O)(=O)NC2CCN(c3ccc(=O)n(CC4CC4)n3)CC2)cc1 | – | inconclusive: 79.4 µM [inhibitor, partial curve, poor fit]
38 | Cc1ccc(-c2ccc(=O)n(Cc3ccc(F)cc3Cl)n2)cc1 | – | inconclusive: 89.1 µM [inhibitor, partial curve, poor fit]
39 | N#C[C@H]1C[C@H]2C[C@@H]2N1C(=O)[C@@H](N)C12CC3CC(CC(O)(C3)C1)C2 | – | inconclusive: 12.2 µM [inhibitor, single point]
40 | O=C(Nc1ccc2c(c1)CCCN2C(=O)c1cccs1)c1ccccc1Cl | – | inconclusive: 126 µM [inhibitor, partial curve, poor fit]
41 | COC(C[C@H]1O[C@H]1C(=O)[C@H](C)OCc1ccccc1)OC | – | inconclusive: 2.51 µM [inhibitor, full curve]
42 | O=S(=O)(Nc1nc2ccccc2nc1NC1CCCC1)c1ccc2ccccc2c1 | – | inconclusive: 22.4 µM [inhibitor, single point]
43 | Cc1ccc(-n2nnnc2SCc2ncc(-c3ccccc3)o2)c(C)c1 | – | inconclusive: 28.2 µM [inhibitor, single point]
44 | CN(C)c1ccc(C(O)P(=O)(OCc2ccccc2)c2ccc(N(C)C)cc2)cc1 (configuration not stated) | – | inconclusive: 112 µM [inhibitor, single point]
45 | O=C(Nc1ccc2oc(-c3ccncc3)nc2c1)c1cccs1 | inactive: -29.1% | –
46 | Cc1cccc(-c2nnc(C3CCN(S(=O)(=O)c4cccc(Cl)c4)CC3)o2)c1 | – | inconclusive: 50.1 µM [inhibitor, partial curve, poor fit]
47 | Cc1ccc(-c2[nH]c(-c3ccc(C(=O)O)cc3)nc2-c2ccccc2)cc1 | – | inconclusive: 50.1 µM [inhibitor, partial curve, poor fit]
